Reference: patent US8129415B2
Some results were stated once for a whole list of compounds, not compound by compound.

Tested on: Phytophthora infestans
Format: in vivo
Settings: dose of 500 ppm, preventive spray on tomato plants 24 hours before contamination, grading 5 days after contamination vs control plants

| SMILES | protection |
| --- | --- |
| Cc1nnnn1/C(=N/OCc1csc(NC(=O)C(C)(C)C)n1)c1ccc(Cl)nc1 [compound 31] | at least 70% |
| CCCCCC(=O)Nc1cccc(CO/N=C(\c2cccc(C)n2)n2nnnc2C)n1 [compound 92, O-[2-(Pentylcarbonylamino)pyridin-6-yl]methyl-(6-methylpyridin-2-yl)-(5-methyltetrazol-1-yl)methanone Oxime] | at least 70% |
